Values from PubChem BioAssay AID743121 (NCATS, 2013).
Assay: 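Genes whose silencing strengthens cell killing by camptothecin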 (primary screen). Cells: MDA-MB-231 cells, a human breast cancer line. Knock-down reagent: single siRNA against human genes, 20 nM siRNA (0.8 pmol per well). Time to read-out: 120 h (drug added 48 h after transfection, read 72 h later). Challenge: camptothecin 20 nM (about EC30) for 72 h; vehicle 0.1% DMSO in parallel plates. Measured: 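Cell viability by ATP luminescence (CellTiter-Glo) as % of non-targeting siRNA wells, and the log2 ratio of viability without drug over viability with camptothecin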. Direction: log2 vehicle/camptothecin viability: higher = stronger sensitisation to camptothecin. Active means: 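Each gene scored by redundant siRNA activity (RSA) over its individual siRNA ratios; a gene is called active at p < 0.001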.
The deposit covers about 26,000 reagents; shown is a part drawn at random. In the full data, 167 (0.63%) were called active. 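Calls are per gene from RSA p-values that are not deposited; an individual active-marked siRNA can sensitise only weakly.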 The numbers tell different reagents against one gene apart. Further read-outs or replicates are left out here. No sequences are given here.

log2 vehicle/camptothecin viability, by target gene and reagent
MGST1: #1 -0.0311 inactive; #2 -0.214 inactive; #3 0.121 inactive; #4 -0.16 inactive
HSD17B4: #1 0.0926 inactive; #2 0.0539 inactive; #3 -0.374 inactive; #4 -0.122 inactive
AK1: #1 -0.0104 inactive; #2 -0.176 inactive; #3 0.139 inactive; #4 -0.405 inactive
EZR: #1 -0.0967 inactive; #2 -0.243 inactive; #3 -0.179 inactive
CCL18: #1 -0.333 inactive; #2 -0.242 inactive; #3 0.137 inactive; #4 -0.358 inactive
SELENOS: #1 0.0366 inactive; #2 -0.121 inactive; #3 0.0741 inactive
ADAM10: #1 -0.288 inactive; #2 -0.308 inactive; #3 -0.103 inactive; #4 0.162 inactive
CAPN15: #1 -0.118 inactive; #2 -0.711 inactive; #3 -0.465 inactive; #4 -0.267 inactive
PROCA1: #1 1.62 inactive; #2 -0.0481 inactive; #3 -0.21 inactive; #4 0.0647 inactive
KIF4A: #1 0.0896 inactive; #2 -0.0847 inactive; #3 0.168 inactive; #4 0.0733 inactive
MTRR: #1 -0.149 inactive; #2 -0.0345 inactive; #3 -0.101 inactive; #4 0.0109 inactive
SLC24A3: #1 -0.197 inactive; #2 -0.167 inactive; #3 -0.584 inactive; #4 0.0892 inactive
COPS2: #1 0.0728 inactive; #2 0.965 inactive; #3 0.0837 inactive; #4 0.761 inactive
RPS6KB1: #1 -0.381 inactive; #2 0.806 inactive; #3 -0.5 inactive; #4 1.73 inactive
TXNDC9: #1 -0.398 inactive; #2 -0.2 inactive; #3 -0.0932 inactive; #4 -0.0376 inactive; #5 -0.0768 inactive

14 successive reagents already listed, for reference:
log2 vehicle/camptothecin viability, by target gene and reagent
AK1: #2 -0.176 inactive; #3 0.139 inactive; #4 -0.405 inactive
EZR: #1 -0.0967 inactive; #2 -0.243 inactive; #3 -0.179 inactive
CCL18: #1 -0.333 inactive; #2 -0.242 inactive; #3 0.137 inactive; #4 -0.358 inactive
SELENOS: #1 0.0366 inactive; #2 -0.121 inactive; #3 0.0741 inactive
ADAM10: #1 -0.288 inactive

Continued.
log2 vehicle/camptothecin viability, by target gene and reagent
PRSS35: #1 -0.364 inactive; #2 -0.219 inactive; #3 -0.421 inactive; #4 -0.329 inactive
USP36: #1 0.166 inactive; #2 -0.459 inactive; #3 -0.105 inactive; #4 -0.0698 inactive
ATP9A: #1 -0.665 inactive; #2 -0.174 inactive; #3 1.18 inactive
ILF3: #1 -0.191 inactive; #2 -0.259 inactive; #3 0.0005 inactive; #4 0.107 inactive
CSNK1A1: #1 -0.249 inactive; #2 -0.0957 inactive; #3 -0.278 inactive; #4 0.303 inactive
ACKR1: #1 -0.295 inactive; #2 0.173 inactive; #3 -0.0504 inactive; #4 -0.422 inactive
PILRB: #1 -0.232 inactive; #2 1.03 inactive; #3 0.203 inactive; #4 -0.15 inactive
ABCA6: #1 0.112 inactive; #2 -0.0662 inactive; #3 0.248 inactive; #4 -0.269 inactive
